From the supplement of paper PMC8728848
Some of the results follow.

Assays:
Assay in all cases: glycan array binding signal (z-score within array); higher = stronger binding
Details in all cases: glycan notation: IUPAC condensed, linker removed
[1] = target: Neu5Ac(a2-3)Gal(b1-3)[Fuc(a1-4)]GlcNAc
Summary of the method: (§1)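 Arrays were curated from the Consortium for Functional Glycomics database, 3228 in total, and kept only where the protein sequence was available. Binding is expressed as a within-array Z-score. This score was averaged across arrays of the same protein sequence at different concentrations or buffers and across linkers, and negative values can be read as non-binding.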

[2] = target: Neu5Ac(a2-3)Gal(b1-3)[Fuc(a1-4)]GlcNAc(b1-3)Gal(b1-3)[Fuc(a1-4)]GlcNAc
Summary of the method: as §1

[3] = target: Neu5Ac(a2-3)Gal(b1-3)[Fuc(a1-4)]GlcNAc(b1-3)Gal(b1-4)[Fuc(a1-3)]GlcNAc
Summary of the method: as §1

[4] = target: Neu5Ac(a2-3)Gal(b1-3)[GlcNAc(b1-6)]GalNAc
Summary of the method: as §1

[5] = target: Neu5Ac(a2-3)Gal(b1-3)[Neu5Ac(a2-6)]GalNAc
Summary of the method: as §1

[6] = target: Neu5Ac(a2-3)Gal(b1-3)[Neu5Ac(a2-6)]GlcNAc(b1-3)[Fuc(a1-3)[Gal(b1-4)]GlcNAc(b1-6)]Gal(b1-4)Glc
Summary of the method: as §1

[7] = target: Neu5Ac(a2-3)Gal(b1-3)]Neu5Ac(a2-3)Gal(b1-4)]GlcNAc
Summary of the method: as §1

Neu5Ac(a2-3)Gal(b1-4)Glc = target: Neu5Ac(a2-3)Gal(b1-4)Glc
Summary of the method: as §1

[8] = target: Neu5Ac(a2-3)Gal(b1-4)GlcNAc
Summary of the method: as §1

[9] = target: Neu5Ac(a2-3)Gal(b1-4)GlcNAc(b1-2)Man
Summary of the method: as §1

[10] = target: Neu5Ac(a2-3)Gal(b1-4)GlcNAc(b1-2)Man(a1-3)[GlcNAc(b1-4)][Neu5Ac(a2-3)Gal(b1-4)GlcNAc(b1-2)Man(a1-6)]Man(b1-4)GlcNAc(b1-4)GlcNAc
Summary of the method: as §1

[11] = target: Neu5Ac(a2-3)Gal(b1-4)GlcNAc(b1-2)Man(a1-3)[Neu5Ac(a2-3)Gal(b1-4)GlcNAc(b1-2)Man(a1-6)]Man(b1-4)GlcNAc(b1-4)GlcNAc
Summary of the method: as §1

[12] = target: Neu5Ac(a2-3)Gal(b1-4)GlcNAc(b1-2)Man(a1-3)[Neu5Ac(a2-3)Gal(b1-4)GlcNAc(b1-2)Man(a1-6)]Man(b1-4)GlcNAc(b1-4)[Fuc(a1-6)]GlcNAc
Summary of the method: as §1

[13] = target: Neu5Ac(a2-3)Gal(b1-4)GlcNAc(b1-2)Man(a1-3)[Neu5Ac(a2-6)Gal(b1-4)GlcNAc(b1-2)Man(a1-6)]Man(b1-4)GlcNAc(b1-4)GlcNAc
Summary of the method: as §1

[14] = target: Neu5Ac(a2-3)Gal(b1-4)GlcNAc(b1-2)[Neu5Ac(a2-3)Gal(b1-4)GlcNAc(b1-4)]Man(a1-3)[GlcNAc(b1-4)][Neu5Ac(a2-3)Gal(b1-4)GlcNAc(b1-2)[Neu5Ac(a2-3)Gal(b1-4)GlcNAc(b1-6)]Man(a1-6)]Man(b1-4)GlcNAc(b1-4)GlcNAc
Summary of the method: as §1

[15] = target: Neu5Ac(a2-3)Gal(b1-4)GlcNAc(b1-2)[Neu5Ac(a2-3)Gal(b1-4)GlcNAc(b1-4)]Man(a1-3)[GlcNAc(b1-4)][Neu5Ac(a2-3)Gal(b1-4)GlcNAc(b1-4)Man(a1-6)]Man(b1-4)GlcNAc(b1-4)GlcNAc
Summary of the method: as §1

[16] = target: Neu5Ac(a2-3)Gal(b1-4)GlcNAc(b1-2)[Neu5Ac(a2-3)Gal(b1-4)GlcNAc(b1-6)]Man(a1-6)[Neu5Ac(a2-3)Gal(b1-4)GlcNAc(b1-2)Man(a1-3)]Man(b1-4)GlcNAc(b1-4)GlcNAc
Summary of the method: as §1

[17] = target: Neu5Ac(a2-3)Gal(b1-4)GlcNAc(b1-2)[Neu5Ac(a2-3)Gal(b1-4)GlcNAc(b1-6)]Man(a1-6)[Neu5Ac(a2-3)Gal(b1-4)GlcNAc(b1-2)Man(a1-3)][GlcNAc(b1-4)]Man(b1-4)GlcNAc(b1-4)GlcNAc
Summary of the method: as §1

[18] = target: Neu5Ac(a2-3)Gal(b1-4)GlcNAc(b1-3)Gal
Summary of the method: as §1

[19] = target: Neu5Ac(a2-3)Gal(b1-4)GlcNAc(b1-3)Gal(b1-3)GlcNAc
Summary of the method: as §1

[20] = target: Neu5Ac(a2-3)Gal(b1-4)GlcNAc(b1-3)Gal(b1-4)GlcNAc
Summary of the method: as §1

[21] = target: Neu5Ac(a2-3)Gal(b1-4)GlcNAc(b1-3)Gal(b1-4)GlcNAc(b1-2)Man(a1-3)[Neu5Ac(a2-3)Gal(b1-4)GlcNAc(b1-3)Gal(b1-4)GlcNAc(b1-2)Man(a1-6)]Man(b1-4)GlcNAc(b1-4)GlcNAc
Summary of the method: as §1

[22] = target: Neu5Ac(a2-3)Gal(b1-4)GlcNAc(b1-3)Gal(b1-4)GlcNAc(b1-3)Gal(b1-4)GlcNAc
Summary of the method: as §1

[23] = target: Neu5Ac(a2-3)Gal(b1-4)GlcNAc(b1-3)Gal(b1-4)GlcNAc(b1-3)Gal(b1-4)GlcNAc(b1-2)Man(a1-3)[Neu5Ac(a2-3)Gal(b1-4)GlcNAc(b1-3)Gal(b1-4)GlcNAc(b1-3)Gal(b1-4)GlcNAc(b1-2)Man(a1-6)]GalNAc
Summary of the method: as §1

[24] = target: Neu5Ac(a2-3)Gal(b1-4)GlcNAc(b1-3)Gal(b1-4)GlcNAc(b1-3)GalNAc
Summary of the method: as §1

[25] = target: Neu5Ac(a2-3)Gal(b1-4)GlcNAc(b1-3)Gal(b1-4)GlcNAc(b1-3)[Neu5Ac(a2-3)Gal(b1-4)GlcNAc(b1-3)Gal(b1-4)GlcNAc(b1-6)]GalNAc
Summary of the method: as §1

[26] = target: Neu5Ac(a2-3)Gal(b1-4)GlcNAc(b1-3)Gal(b1-4)GlcNAc(b1-6)[Gal(b1-3)]GalNAc
Summary of the method: as §1

[27] = target: Neu5Ac(a2-3)Gal(b1-4)GlcNAc(b1-3)Gal(b1-4)[Fuc(a1-3)]GlcNAc
Summary of the method: as §1

[28] = target: Neu5Ac(a2-3)Gal(b1-4)GlcNAc(b1-3)GalNAc
Summary of the method: as §1

[29] = target: Neu5Ac(a2-3)Gal(b1-4)GlcNAc(b1-3)[Neu5Ac(a2-3)Gal(b1-4)GlcNAc(b1-6)]GalNAc
Summary of the method: as §1

B1: Sp8391B-bot-388-20-388 (Bacteroides ovatus) (protein)
chain: GCQNNDENEQHYDNKLFISASNFTKEILFKAGDTNVETGLSVAIAKPEEHDIKVTMSPAPELLSTYKLAYYDETAVLLSEEHYSMPETSTTIKSGSIVSPELPIEFINTGELDIKTTYVLPVTIKSVEGIGVLQSAKTYYYVFRGASLINVVCNISRNRAYPDFKNDSKFNNLTENTMEILFKANSFPNTLNTLMGIESNYLLRIGDATIPNNQLQVATSVNNCTSADLQLESGKWYHVAVAFNKGNVKVYINGVEKLSGSTGKSSVSLGAKHTNEEDGSRCFWVGYSYKDDRYFDGVVSEVRIWNRALTAEEIQATNHFYTIEPESEGLIAYWKFDEGSGTVAKDYSVSGYDLTIEKEPKWESVSLPQ
glycan array binding signal (z-score) [1]: 0.453
glycan array binding signal (z-score) [2]: 0.339
glycan array binding signal (z-score) [3]: -0.611
glycan array binding signal (z-score) [4]: -0.315
glycan array binding signal (z-score) [5]: -0.652
glycan array binding signal (z-score) [6]: -1.12
glycan array binding signal (z-score) [7]: -0.275
glycan array binding signal (z-score) (Neu5Ac(a2-3)Gal(b1-4)Glc): -0.356
glycan array binding signal (z-score) [8]: -0.47
glycan array binding signal (z-score) [9]: -0.285
glycan array binding signal (z-score) [10]: -0.384
glycan array binding signal (z-score) [11]: -0.533
glycan array binding signal (z-score) [12]: -0.812
glycan array binding signal (z-score) [13]: -0.28
glycan array binding signal (z-score) [14]: -0.47
glycan array binding signal (z-score) [15]: -0.92
glycan array binding signal (z-score) [16]: 0.918
glycan array binding signal (z-score) [17]: 0.676
glycan array binding signal (z-score) [18]: -0.707
glycan array binding signal (z-score) [19]: -0.674
glycan array binding signal (z-score) [20]: -0.229
glycan array binding signal (z-score) [21]: -0.056
glycan array binding signal (z-score) [22]: -0.525
glycan array binding signal (z-score) [23]: 1.33
glycan array binding signal (z-score) [24]: -0.096
glycan array binding signal (z-score) [25]: 1.19
glycan array binding signal (z-score) [26]: 1.14
glycan array binding signal (z-score) [27]: 0.229
glycan array binding signal (z-score) [28]: -0.435
glycan array binding signal (z-score) [29]: 0.693
